{"sequences": {"note": "By UniProt entry, the sequences of proteins in these tests, tags left out.", "UniProt P08913, whole entry": "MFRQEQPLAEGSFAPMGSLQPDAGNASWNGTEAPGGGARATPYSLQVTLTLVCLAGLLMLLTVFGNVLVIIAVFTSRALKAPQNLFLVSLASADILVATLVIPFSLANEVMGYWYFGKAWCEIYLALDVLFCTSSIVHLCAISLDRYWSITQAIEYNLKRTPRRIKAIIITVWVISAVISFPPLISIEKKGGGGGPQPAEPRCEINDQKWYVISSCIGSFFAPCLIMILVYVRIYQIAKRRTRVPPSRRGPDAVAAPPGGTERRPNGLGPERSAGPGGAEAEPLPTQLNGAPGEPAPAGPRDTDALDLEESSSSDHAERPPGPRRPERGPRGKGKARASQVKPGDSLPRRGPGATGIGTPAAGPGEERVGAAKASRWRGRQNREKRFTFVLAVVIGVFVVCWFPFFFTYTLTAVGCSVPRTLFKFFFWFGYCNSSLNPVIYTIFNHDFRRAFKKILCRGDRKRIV"}, "source": "patent US20100029620A1", "about": "“SUBSTITUTED TRIAZOLINE, TETRAZOLONE AND IMIDAZOLONE DERIVATIVES FOR USE AS A MEDICINE” (JANSSEN PHARMACEUTICA N.V., priority 2004, published 2010)", "target": "human adrenergic-α2A receptor (Homo sapiens, UniProt P08913)", "assay": "Radioligand binding experiment for α2A-adrenoceptor ([3H]-raulwolscine competition, CHO cell membranes)", "conditions": "[3H]raulwolscine 1 nM, membranes of CHO cells transfected with human α2A receptor", "protocol": "The interaction of the compounds of Formula (I) with α2C-adrenoceptor receptors was assessed in in vitro radioligand binding experiments. In general, a low concentration of a radioligand with a high binding affinity for a particular receptor or transporter is incubated with a sample of a tissue preparation enriched in a particular receptor or transporter or with a preparation of cells expressing cloned human receptors in a buffered medium. During the incubation, the radioligand binds to the receptor or transporter. When equilibrium of binding is reached, the receptor bound radioactivity is separated from the non-bound radioactivity, and the receptor- or transporter-bound activity is counted. The interaction of the test compounds with the receptor is assessed in competition binding experiments. […]\nMembranes were thawed and re-homogenized in incubation buffer (glycylglycine 25 mM, pH 8.0). […] Filter-bound radioactivity was determined by scintillation counting in a Topcount (Packard, Meriden, CT) and results were expressed as counts per minute (cpm). Non-specific binding was determined in the presence of 1 μM oxymetazoline for hα2A- and hα2B receptors and 1 μM spiroxatrine for hα2C receptors.\nData from assays in the presence of compound were calculated as a percentage of total binding measured in the absence of test compound. […]", "note": "“And” between values parts separate entries of the source, which are not always exact repeats. Equal values may be shown once. The match of structure and compound is tentative."}
{"compound": "O=c1n(CC2CCN(CCOc3ccccc3)CC2)cnn1CCN1CCN(Cc2ccc3ccccc3c2)CC1", "values": [{"measurement": "pIC50 α2A", "value": "7.5 and 7.4"}]}
